Like-named read-outs stand apart in the source and are kept apart here. These are yes or no findings as the source states them, for the method shown. For some of these results: Binding seen in cells or lysates may run through a third protein. Some binding calls cover weakened binding; strength is not graded here.
Experiments:
[1] = target: Flag-tagged wild-type Claspin (UniProt Q9HAW4); assay: co-IP
[2] = target: Claspin 1-350aa+897-1209aa polypeptide (#19), C-terminally Flag-tagged (UniProt Q9HAW4); assay: co-IP
[3] = target: Claspin 1-350aa+897-1339aa polypeptide (#24), C-terminally Flag-tagged (UniProt Q9HAW4); assay: co-IP
[4] = target: Claspin 897-1209aa polypeptide (#13), C-terminally Flag-tagged (UniProt Q9HAW4); assay: co-IP
[5] = target: Claspin 897-1339aa polypeptide (#18), C-terminally Flag-tagged (UniProt Q9HAW4); assay: co-IP
[6] = target: Claspin 1-350aa+897-1209aa polypeptide (#19), C-terminally Flag-tagged (UniProt Q9HAW4); assay: co-IP; remark: listed apart in the source
[7] = target: Claspin 1-350aa+897-1339aa polypeptide (#24), C-terminally Flag-tagged (UniProt Q9HAW4); assay: co-IP; remark: listed apart in the source
[8] = target: Claspin 897-1101aa polypeptide (#27), C-terminally Flag-tagged (UniProt Q9HAW4); assay: co-IP
[9] = target: Claspin 897-1209aa polypeptide (#13), C-terminally Flag-tagged (UniProt Q9HAW4); assay: co-IP; remark: listed apart in the source
[10] = target: Claspin 897-1339aa polypeptide (#18), C-terminally Flag-tagged (UniProt Q9HAW4); assay: co-IP; remark: listed apart in the source
[11] = target: Flag-tagged wild-type Claspin (UniProt Q9HAW4); assay: co-IP; remark: listed apart in the source
[12] = target: Claspin 897-1209aa polypeptide (#13), C-terminally Flag-tagged (UniProt Q9HAW4); assay: pull-down
[13] = target: Flag-tagged wild-type Claspin (UniProt Q9HAW4); assay: pull-down
[14] = target: His-tagged 897-1209aa Claspin polypeptide, wild type (UniProt Q9HAW4); assay: pull-down

Chains of the proteins cited; added tags and fusions are not shown.
UniProt P23443: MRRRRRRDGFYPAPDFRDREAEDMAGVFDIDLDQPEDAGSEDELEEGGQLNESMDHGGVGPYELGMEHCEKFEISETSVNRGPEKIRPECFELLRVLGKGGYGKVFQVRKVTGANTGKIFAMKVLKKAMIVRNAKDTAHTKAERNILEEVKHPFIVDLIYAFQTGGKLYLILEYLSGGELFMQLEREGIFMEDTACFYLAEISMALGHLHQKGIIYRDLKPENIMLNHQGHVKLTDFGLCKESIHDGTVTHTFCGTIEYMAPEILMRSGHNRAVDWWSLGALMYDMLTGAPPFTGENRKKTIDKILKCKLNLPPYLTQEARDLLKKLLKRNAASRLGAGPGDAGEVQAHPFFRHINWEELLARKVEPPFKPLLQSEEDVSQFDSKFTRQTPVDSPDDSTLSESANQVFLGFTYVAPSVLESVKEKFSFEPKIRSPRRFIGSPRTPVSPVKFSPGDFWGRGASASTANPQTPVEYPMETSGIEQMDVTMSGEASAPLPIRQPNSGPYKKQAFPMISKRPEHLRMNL
UniProt P42338: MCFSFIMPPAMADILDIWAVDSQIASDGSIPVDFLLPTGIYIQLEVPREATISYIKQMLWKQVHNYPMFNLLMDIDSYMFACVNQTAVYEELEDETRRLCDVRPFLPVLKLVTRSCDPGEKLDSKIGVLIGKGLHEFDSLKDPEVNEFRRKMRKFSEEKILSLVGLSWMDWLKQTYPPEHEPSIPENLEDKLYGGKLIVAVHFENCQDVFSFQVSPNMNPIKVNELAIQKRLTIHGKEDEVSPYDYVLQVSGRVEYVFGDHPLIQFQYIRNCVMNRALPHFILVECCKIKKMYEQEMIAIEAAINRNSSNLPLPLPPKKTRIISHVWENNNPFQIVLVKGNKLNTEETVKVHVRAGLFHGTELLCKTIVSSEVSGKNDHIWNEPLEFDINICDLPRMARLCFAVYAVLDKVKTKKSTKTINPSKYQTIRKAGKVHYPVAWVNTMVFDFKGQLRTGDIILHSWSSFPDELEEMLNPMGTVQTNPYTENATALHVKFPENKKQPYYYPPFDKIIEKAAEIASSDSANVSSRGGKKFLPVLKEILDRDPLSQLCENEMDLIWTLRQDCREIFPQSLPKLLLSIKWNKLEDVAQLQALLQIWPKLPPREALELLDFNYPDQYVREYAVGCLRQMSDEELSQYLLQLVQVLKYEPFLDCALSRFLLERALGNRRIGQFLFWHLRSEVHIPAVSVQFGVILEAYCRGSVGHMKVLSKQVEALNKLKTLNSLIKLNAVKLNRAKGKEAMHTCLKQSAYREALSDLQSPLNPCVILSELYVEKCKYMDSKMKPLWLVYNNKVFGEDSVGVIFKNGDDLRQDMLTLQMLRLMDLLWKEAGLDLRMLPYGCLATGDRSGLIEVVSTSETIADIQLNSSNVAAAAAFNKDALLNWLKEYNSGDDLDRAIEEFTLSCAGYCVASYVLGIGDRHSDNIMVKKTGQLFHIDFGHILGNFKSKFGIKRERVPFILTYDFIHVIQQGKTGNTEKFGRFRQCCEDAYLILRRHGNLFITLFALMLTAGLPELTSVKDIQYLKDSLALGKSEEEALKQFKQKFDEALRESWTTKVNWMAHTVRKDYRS
UniProt Q13541: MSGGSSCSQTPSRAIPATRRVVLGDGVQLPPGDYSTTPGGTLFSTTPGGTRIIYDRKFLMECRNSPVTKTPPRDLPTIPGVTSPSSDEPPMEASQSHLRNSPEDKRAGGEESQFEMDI

S6 kinase (endogenous, 293T) (from UniProt P23443 1-525)
binding [1]: no binding

PI3 kinase p110β (endogenous, 293T) (from UniProt P42338 1-1070)
binding [2]: binds
binding [3]: binds
binding [4]: binds
binding [5]: binds
binding [1]: binds

4EBP1 (endogenous, 293T) (from UniProt Q13541 1-118)
binding [1]: no binding

B1: PDK1 (endogenous, 293T) (protein, UniProt O15530 1-556)
chain: MARTTSQLYDAVPIQSSVVLCSCPSPSMVRTQTESSTPPGIPGGSRQGPAMDGTAAEPRPGAGSLQHAQPPPQPRKKRPEDFKFGKILGEGSFSTVVLARELATSREYAIKILEKRHIIKENKVPYVTRERDVMSRLDHPFFVKLYFTFQDDEKLYFGLSYAKNGELLKYIRKIGSFDETCTRFYTAEIVSALEYLHGKGIIHRDLKPENILLNEDMHIQITDFGTAKVLSPESKQARANSFVGTAQYVSPELLTEKSACKSSDLWALGCIIYQLVAGLPPFRAGNEYLIFQKIIKLEYDFPEKFFPKARDLVEKLLVLDATKRLGCEEMEGYGPLKAHPFFESVTWENLHQQTPPKLTAYLPAMSEDDEDCYGNYDNLLSQFGCMQVSSSSSSHSLSASDTGLPQRSGSNIEQYIHDLDSNSFELDLQFSEDEKRLLLEKQAGGNPWHQFVENNLILKMGPVDKRKGLFARRRQLLLTEGPHLYYVDPVNKVLKGEIPWSQELRPEAKNFKTFFVHTPNRTYYLMDPSGNAHKWCRKIQEVWRQRYQSHPDAAVQ
modifications: phosphoserine at 241 (the form told to interact with Claspin in Fig. 5A)
binding [6]: binds
binding [7]: binds
binding [8]: binds
binding [9]: binds
binding [10]: binds
binding [11]: binds

B2: purified PDK1 (Carna Bioscience) (enzyme, UniProt O15530 1-556)
chain: MARTTSQLYDAVPIQSSVVLCSCPSPSMVRTQTESSTPPGIPGGSRQGPAMDGTAAEPRPGAGSLQHAQPPPQPRKKRPEDFKFGKILGEGSFSTVVLARELATSREYAIKILEKRHIIKENKVPYVTRERDVMSRLDHPFFVKLYFTFQDDEKLYFGLSYAKNGELLKYIRKIGSFDETCTRFYTAEIVSALEYLHGKGIIHRDLKPENILLNEDMHIQITDFGTAKVLSPESKQARANSFVGTAQYVSPELLTEKSACKSSDLWALGCIIYQLVAGLPPFRAGNEYLIFQKIIKLEYDFPEKFFPKARDLVEKLLVLDATKRLGCEEMEGYGPLKAHPFFESVTWENLHQQTPPKLTAYLPAMSEDDEDCYGNYDNLLSQFGCMQVSSSSSSHSLSASDTGLPQRSGSNIEQYIHDLDSNSFELDLQFSEDEKRLLLEKQAGGNPWHQFVENNLILKMGPVDKRKGLFARRRQLLLTEGPHLYYVDPVNKVLKGEIPWSQELRPEAKNFKTFFVHTPNRTYYLMDPSGNAHKWCRKIQEVWRQRYQSHPDAAVQ
binding [12]: binds
binding [13]: binds
binding [14]: binds
